At least one read-out could not be matched to a standard name with certainty.
Tested on: soleus muscles
Assay: Mg2+ concentration required to depress nerve-stimulated force by 50% (Kd,Mg2+), combination treatments
Assay type: cell-based, rat
Procedure: FIG. 6. […] Muscles from 4-week-old rats were stimulated to contract by activating the motor nerve with short duration pulses in field stimulation. Muscles contracted every 10 min for 2 s in response to 30 Hz stimulation. Four different experimental conditions were used. […] C) similar to A) but this muscle had been pre-incubated with 3,4-AP. […] The force integral (AUC) was determined at each extracellular Mg^2+ concentration. AUC was plotted against Mg^2+ concentration and the data was fitted to a sigmoidal function (FIG. 6E). This provided the extracellular Mg^2+ concentration that was required to reduce the nerve-stimulated force to 50% (Mg50) under the four different conditions (see Table 5).
While the use of tubocurarine mimics conditions with reduced neuromuscular transmission due to post-synaptic dysfunction (myasthenia gravis, neuromuscular blockade), the experiments with elevated extracellular Mg^2+ mimics conditions with pre-synaptic dysfunction akin to a range of neuromuscular disorders including Lambert Eaton syndrome^26, motor neuron disorders^6-9 and polyneuropathy^18, 19. […] Based on this it was determined whether recovery of nerve-stimulated force at elevated extracellular Mg^2+ with ClC-1 inhibiting compounds could be added to force recovery with 3,4-AP. […] To quantify the effect of compounds on Mg^2+ sensitivity the force at the different Mg^2+ concentrations was determined. […]

With `C[C@H](Oc1ccc(Br)cc1)C(=O)O` [Compound C8, (2S)-2-(4-bromophenoxy)propanoic acid] the “Kd, Mg2+” value (Compound (50 μM) + 3,4-AP (10 μM)) was 7.8 ± 0.5 mM and the “Kd, Mg2+” value (Compound (50 μM) alone, control 3.5 ± 0.1 mM) was 4.0 ± 0.1 mM.

Source: patent publication US10934244B2, “Compounds for use in treating neuromuscular disorders” (NMD PHARMA A/S, priority 2015, dated 2021)
